Source: PubChem BioAssay AID2685 (National Center for Advancing Translational Sciences (NCATS), 2010)
The other results are listed elsewhere or left out. These are further read-outs of the screen, such as a control signal, another cell line or another target. No call is given for them. Compounds called inactive in the main read-out are mostly missing here. The note in brackets gives the kind of curve behind each potency; many fits are weak.

Experiment: qHTS Assay for Lipid Storage Modulators in Drosophila S3 Cells;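 for cell number change: cells counted by Cell Tracker Red CMTPX staining in the red channel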
Settings: BODIPY lipid droplet fluorescence, 18-24 h; for cell number change: measured here: cell count max response, cells fed with added oleic acid
Procedure, shortened: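 Drosophila S3 cells got compounds at several concentrations plus oleic acid (400 uM solution). Laser-scanning cytometry with 488 nm excitation read lipid droplets at 500-530 nm and cells at 575-640 nm. Percent activity was relative to 20 uM Triacsin C.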

[1] = measured here: lipid fluorescence (Fed channel) AC50, cells fed with added oleic acid
[2] = measured here: cell number channel AC50, cells fed with added oleic acid

## O=C(Nc1ccccc1Cl)N1CCn2c(nc3ccccc32)C1
  cell number change: -9.16%
[1]
  AC50: 16.4 µM [falling, single point]

## CN1CCc2c(sc(NC(=O)c3cc(Cl)sc3Cl)c2C(N)=O)C1
  cell number change: -8.36%
[1]
  AC50: 0.58 µM [falling, partial curve]

## O=C(CCCCCCCC(=O)NNC(=O)Nc1ccccc1)NNC(=O)Nc1ccccc1
  cell number change: -69.7%
[2]
  AC50: 29.1 µM [falling, single point]
[1]
  AC50: 6.51 µM [falling, single point]

## C=CCNc1ccc(C(=O)O)cc1
  cell number change: -34.5%
[2]
  AC50: 23.1 µM [falling, single point]
[1]
  AC50: 7.31 µM [falling, single point]

## CO/N=C/c1c(C(=O)OC)nn(-c2ccccc2)c1Cl
  cell number change: 16.6%

## CCOC(=O)N1CCC(NC(=O)C2=CCN(S(=O)(=O)c3ccc(F)cc3)CC2)CC1
  cell number change: -26.3%
[2]
  AC50: 0.651 µM [falling, full curve, poor fit]
[1]
  AC50: 0.651 µM [falling, full curve]

## O=C(Cc1ccc(Cl)cc1)Nc1ccc(S(=O)(=O)Nc2ncccn2)cc1
  cell number change: -30.5%
[2]
  AC50: 7.31 µM [falling, partial curve]

## c1ccc2c(c1)OCc1cn[nH]c1-2
  cell number change: 9.81%

## COc1ccc(CC(NC(C)=O)C(=O)N2CCN(C(=O)Nc3cccc(Cl)c3)CC2)cc1OC (stereo unspecified)
  cell number change: 17.9%
[1]
  AC50: 0.00517 µM [rising, full curve, poor fit]

## CCCCn1c(Nc2ccccc2)nc2ccccc21
[2]
  AC50: 2.06 µM [rising, partial curve]
[1]
  AC50: 6.51 µM [rising, single point]

## CCOC(=O)c1[nH]c(C)c(C(=O)OCc2c(C)noc2C)c1C
  cell number change: 17.1%

## O=C(NC1CCCCCC1)C1c2ccccc2C(=O)N1CCCN1CCOCC1 (stereo unspecified)
  cell number change: 4.22%

## O=C(CN1CCN(S(=O)(=O)c2ccccc2)CC1)NC(=O)NCc1ccco1
  cell number change: -4.09%
[1]
  AC50: 0.92 µM [rising, full curve, poor fit]

## COc1cc(OC)c(C2C(C(=O)O)c3ccccc3C(=O)N2C)cc1OC (stereo unspecified)
  cell number change: 19%
[1]
  AC50: 29.1 µM [rising, single point]

## CCC(=O)Oc1cccc(C(=O)Nc2cccc(NC(=O)c3ccco3)c2)c1
  cell number change: -13.2%
[2]
  AC50: 2.31 µM [falling, partial curve, poor fit]
[1]
  AC50: 0.1 µM [rising, full curve, poor fit]

## Cc1cc2ncc(-c3cccc(Cl)c3)cn2n1
  cell number change: -36.6%
[2]
  AC50: 0.291 µM [falling, full curve, poor fit]
[1]
  AC50: 0.731 µM [falling, partial curve, poor fit]

## Cc1ccccc1NC(=S)N1CCN(c2ccccc2)CC1
  cell number change: 20.1%
[1]
  AC50: 32.6 µM [rising, single point]

## CCn1cc(CNC(=O)CCSc2nc(-c3ccco3)cc(C(F)(F)F)n2)cn1
  cell number change: 43.5%
[2]
  AC50: 7.31 µM [rising, partial curve]

## CC1(c2ccc(OC(F)F)cc2)NC(=O)N(CC(=O)N2CCN(C(=O)c3ccco3)CC2)C1=O (stereo unspecified)
  cell number change: -13.8%
[1]
  AC50: 0.00517 µM [falling, full curve, poor fit]

## CCCN(Cc1nc(-c2ccc(Cl)cc2)no1)CC1CCCO1 (stereo unspecified)
  cell number change: -7.28%
[1]
  AC50: 16.4 µM [falling, single point]

## O=C1c2cccc3c(O)ccc(c23)C(=O)N1Cc1ccccc1
  cell number change: -99%
[2]
  AC50: 29.1 µM [falling, single point]
[1]
  AC50: 29.1 µM [falling, single point]

## Cc1nn(C)c(C)c1NC(=O)COc1ccc(Cl)cc1Br
  cell number change: -17.2%
[1]
  AC50: 0.146 µM [rising, full curve, poor fit]

## O=C(NCCS(=O)(=O)N1CCN(c2ccccc2F)CC1)c1ccc(Br)o1
  cell number change: -9.56%
[1]
  AC50: 16.4 µM [falling, single point]

## CCCCOc1ccc(C(=O)N(C)CC(=O)Nc2ccc(C)cc2)cc1
  cell number change: 19.4%
[1]
  AC50: 0.58 µM [rising, single point]

## COCn1c(C(O)c2ccccc2)cc2ccccc21 (stereo unspecified)
  cell number change: 7.37%
[1]
  AC50: 16.4 µM [rising, partial curve, poor fit]

## CC(C)CN(C(=O)COC(=O)/C=C/c1ccccc1)C1CCS(=O)(=O)C1 (stereo unspecified)
  cell number change: -9.59%

## CCSC(=Nc1ccccc1)C1=C(O)COC1=O
  cell number change: 1.2%
[1]
  AC50: 0.731 µM [falling, partial curve]

## Cc1ccc(NC(=O)Cn2c(CCC(=O)O)ccc2-c2ccc(Cl)cc2)cc1
  cell number change: 15.9%
[1]
  AC50: 5.17 µM [rising, partial curve]

## CSC1=NCCN1C(=O)c1cccs1
  cell number change: -54.9%
[2]
  AC50: 4.11 µM [falling, full curve]
[1]
  AC50: 3.26 µM [rising, single point]

## COc1cc(CNn2cnnc2)ccc1OCC(=O)NC1CCCCC1
[2]
  AC50: 1.84 µM [rising, partial curve]

## Cc1[nH]c2ccccc2c1C(=O)CNc1nccs1
[2]
  AC50: 0.411 µM [rising, single point]

## CCCCOc1ccc(CN(CCO)CCO)cc1[N+](=O)[O-]
  cell number change: -8.51%
[2]
  AC50: 2.59 µM [falling, single point]

## Cc1ccc(N=Cc2cc(Cc3ccccc3Cl)cc([N+](=O)[O-])c2O)c(O)c1
  cell number change: -46.7%
[2]
  AC50: 29.1 µM [falling, single point]
[1]
  AC50: 20.6 µM [falling, single point]

## O=C(CC(=O)c1ccccc1O)c1cccc(F)c1
  cell number change: -29%
[1]
  AC50: 6.51 µM [rising, single point]

## O=c1[nH]c2ccccc2nc1CCc1ccccc1
  cell number change: -30.7%
[2]
  AC50: 0.13 µM [falling, full curve, poor fit]

## Cc1ccnc(N2C(=O)c3cccc4c([N+](=O)[O-])ccc(c34)C2=O)c1
  cell number change: -145%
[2]
  AC50: 18.4 µM [falling, single point]
[1]
  AC50: 29.1 µM [falling, single point]

## COc1ccc(OC)c(C2C(C(C)=O)=C(O)C(=O)N2c2ccc(F)cc2)c1 (stereo unspecified)
  cell number change: 26.7%
[2]
  AC50: 0.146 µM [rising, full curve, poor fit]
[1]
  AC50: 0.461 µM [falling, full curve]

## Cc1ccc(N(C(=O)CNC(=O)c2ccco2)C(C(=O)NC2CCCCC2)c2cccnc2)cc1 (stereo unspecified)
  cell number change: 26.1%

## O=c1cc(O)c(-c2cccc(Cl)c2)c(Cl)[nH]1
  cell number change: -98.5%
[2]
  AC50: 29.1 µM [falling, partial curve, poor fit]
[1]
  AC50: 0.461 µM [falling, partial curve, poor fit]

## O=C(O)c1ccc(S(=O)(=O)N2CCCCCC2)cc1
  cell number change: 16.6%
[1]
  AC50: 23.1 µM [rising, single point]

## CN1CCN(Cc2cc(=O)oc3ccc(Cl)cc23)CC1
  cell number change: -0.974%
[1]
  AC50: 0.00517 µM [falling, full curve, poor fit]

## Cc1ccc(NC(=O)CCNCc2ccco2)cc1S(=O)(=O)N(C)C
  cell number change: 7.08%

## COc1cc(CNCCN2CCOCC2)ccc1OCc1ccccc1Cl
  cell number change: -47.2%
[2]
  AC50: 4.11 µM [falling, single point]

## COc1ccccc1-n1cnnc1SCC(=O)NC1CCCC1
  cell number change: 2.26%
[1]
  AC50: 18.4 µM [falling, single point]

## CN(CC(=O)Nc1ccc(F)c(F)c1F)C1CCCCC1
  cell number change: 3.73%

## Cc1ccc(-c2noc(CCC(=O)NCCN3CCN(Cc4ccccc4)CC3)n2)cc1
  cell number change: -21.1%
[1]
  AC50: 0.00517 µM [falling, full curve, poor fit]

## Cc1ccc(C(=O)NC(=S)Nc2ccc(CN3CCCCC3)cc2)c(C)c1
  cell number change: -86.3%
[2]
  AC50: 18.4 µM [falling, partial curve]

## Cc1nnc(SCC(=O)N(Cc2ccccc2)C(C)C)n1-c1ccccc1
  cell number change: -18.5%
[2]
  AC50: 0.146 µM [rising, full curve, poor fit]

## Brc1cc2ccccc2[n+](Cc2ccccc2)c1
  cell number change: 5.41%
[1]
  AC50: 2.59 µM [falling, single point]

## O=C(Nc1ccccc1)N1CCN2C(=O)c3ccccc3C12c1ccccc1 (stereo unspecified)
  cell number change: -21.2%

## CCOc1ccc(CN(C)C(=O)[C@H](C)NC(=O)c2ccco2)cc1OC
  cell number change: -5.13%
[1]
  AC50: 0.00411 µM [rising, full curve, poor fit]

## CC(C)C(=O)NC(=S)Nc1ccc(S(=O)(=O)N(C)Cc2ccccc2)cc1
[2]
  AC50: 0.731 µM [rising, single point]

## CN1CCCC(OC(=O)CCCC(=O)OC2CCCN(C)C2)C1 (stereo unspecified)
  cell number change: 10.6%
[1]
  AC50: 29.1 µM [rising, single point]

## O=C(Nc1ccc(F)cc1)c1nn(-c2ccccc2)c(=O)cc1Cl
  cell number change: -28%
[1]
  AC50: 25.9 µM [falling, partial curve, poor fit]

## O=C1N(c2ccc(Cl)c(Cl)c2)CN(Cc2ccccc2)CN1n1cnnc1
  cell number change: 2.21%
[1]
  AC50: 29.1 µM [falling, single point]

## Cc1ccc(S(=O)(=O)NCCC(c2ccccc2)c2ccccc2)cc1C(=O)O
[1]
  AC50: 1.03 µM [falling, single point]

## S=C(Nc1ccc(OCc2ccccc2)cc1)Nc1cccc(Cl)c1Cl
  cell number change: -48%
[2]
  AC50: 29.1 µM [falling, single point]
[1]
  AC50: 29.1 µM [falling, single point]

## O=Cc1ccnc(-c2ccc(OC(=O)c3ccco3)cc2)n1
  cell number change: -21.4%
[1]
  AC50: 4.11 µM [falling, full curve, poor fit]

## CC1=CC(=O)CC(C)(C)C1(O)/C=C/C(C)=C/C(=O)O (stereo unspecified)
  cell number change: -28.8%
[2]
  AC50: 0.0184 µM [falling, full curve]
[1]
  AC50: 16.4 µM [falling, partial curve]

## CCCS(=O)(=O)N1CCC(CCOc2ccccc2)(C(=O)OCC)CC1
  cell number change: -19.6%
[2]
  AC50: 0.731 µM [falling, full curve, poor fit]
[1]
  AC50: 0.731 µM [falling, full curve]
